# Data reported in the supplement of paper PMC8256030.
# Values joined by “and” are separate entries in the source; they are usually repeats but may differ in a detail not shown here. Equal values may be shown once. Where a name gives a salt, the structure may show the parent alone. The list shows a part of the results. Repeats in this data set agree poorly, so a single value says little.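 HEK293T cells were given each compound shortly before transfection with a reporter in which red mCherry is followed by the SARS-CoV-2 frameshift element and then GFP in the −1 frame, so GFP appears only after frameshifting.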
# System: SARS-CoV-2 -1 PRF reporter mCherry-FSE-GFP(-1)
# Assay: percent effect, decrease of GFP/mCherry ratio (-1 PRF reporter) relative to controls; higher = stronger frameshift inhibition
# Details: 10 µM; 24 h; HEK293T
row,Structure (SMILES),percent effect
1,S=C=NCc1ccccc1,-1.48%
2,Cc1ncc[nH]1.ClCC1CO1 [colestilan],-4.17%
3,CC(C(=O)c1ccccc1)N(C)C (stereo not given) [metamfepramone],-6.67%
4,CCCC(C)(COC(N)=O)COC(=O)NC1CC1 (stereo not given) [lorbamate],-3.41%
5,C[C@@H](CO)NC(=O)[C@@H]1C=C2c3cccc4[nH]cc(c34)C[C@H]2N(C)C1,-3.85%
6,O=C(O)[C@@H]1C[C@H](CP(=O)(O)O)CCN1 (racemic) [selfotel],-6.45%
7,CC[N+]1(CC)CCC(OC(=O)C(O)(c2ccccc2)c2ccccc2)C1 (stereo not given) [benzilonium],-1.72%
8,CCNC1=Nc2ccc(Cl)cc2C(C)(c2ccccc2)O1 (stereo not given) [etifoxine],-6.56%
9,COc1ccc(CN2CCNCC2)c(OC)c1OC,1.06%
10,C/C(=C\c1csc(C)n1)[C@@H]1C[C@@H]2O[C@]2(C)CCC[C@H](C)[C@H](O)[C@@H](C)C(=O)C(C)(C)[C@@H](O)CC(=O)O1 [patupilone],-11.5%
11,NC1=NCC(c2ccccc2)O1 (stereo not given) [aminorex],-6.06%
12,C#CCO[C@H]1CN2CCC1CC2 [talsaclidine],-0.0123%
13,CCOc1ccc2c3c1O[C@H]1[C@@H](O)C=C[C@H]4[C@@H](C2)N(C)CC[C@@]341,0.202%
14,CC(C)c1nc(N(C)S(C)(=O)=O)nc(-c2ccc(F)cc2)c1/C=C/[C@@H](O)C[C@@H](O)CC(=O)O [rosuvastatin],-5.15%
15,CN1[C@@H]2CC[C@H]1C[C@@H](OC(=O)[C@H](CO)c1ccccc1)C2 [Levsin],3.76%
16,NC(=O)c1cc([N+](=O)[O-])cc([N+](=O)[O-])c1,-8.19%
17,CCC(Br)(CC)C(=O)NC(N)=O [carbromal],2.4%
18,CCCC(C)C1(CC)C(=O)NC(=S)NC1=O (stereo not given) [Trapanal],-4.5%
19,c1ccc(C2(N3CCCCC3)CCCCC2)cc1 [phencyclidine],-1.7%
20,CCOC(=O)[C@H]1[C@@H](OC(=O)c2ccccc2)C[C@@H]2CC[C@H]1N2C,-2.23%

# Look-ups from the results shown.
# percent effect with CCC(Br)(CC)C(=O)NC(N)=O [carbromal] is entered as 2.4%
# percent effect with C#CCO[C@H]1CN2CCC1CC2 [talsaclidine] is entered as -0.0123%

# Next compounds:

row,Structure (SMILES),percent effect
1,CCCCCc1cc(O)c2c(c1)OC(C)(C)c1ccc(C)cc1-2 [cannabinol],-2.26%
2,CNC(C)(C)Cc1ccccc1 [mephentermine],3.69%
3,C=C[C@H]1CN2CCC1C[C@H]2[C@H](O)c1ccnc2ccc(OC)cc12 (stereo not given in full) [Quinine·HCl·2H2O],0.816%
4,CN1CCc2c(c3ccccc3n2Cc2ccccc2)C1 [mebhydrolin],-7.92%
5,CCCNC(C)C(=O)Nc1c(C)csc1C(=O)OC (stereo not given) [articaine],-4.58%
6,CC(C)(C)CC(C)(C)c1ccc(OCCO)cc1 [octoxinol],-0.725%
7,CC(C)(C)OC(=O)c1ncn2c1[C@@H]1CCCN1C(=O)c1c(Br)cccc1-2 [bretazenil],-0.693%
8,C=CCNc1nc(NCC=C)nc(N2CCN(C(c3ccc(F)cc3)c3ccc(F)cc3)CC2)n1 [almitrine],-7.45%
9,C[N+]1(C)[C@@H]2C[C@@H](OC(=O)[C@H](CO)c3ccccc3)C[C@H]1[C@@H]1O[C@@H]12,-2.07%
10,CNC(C)Cc1ccccc1OC (stereo not given) [methoxyphenamine],-2.13%
11,N[C@@H](Cc1ccc(N(CCCl)CCCl)cc1)C(=O)O,1.21%
12,C[C@H](N)[C@H](O)c1ccc(O)c(O)c1,-6.9%
13,CC(NC(C)(C)C)C(=O)c1cccc(Cl)c1 (stereo not given) [bupropion],-1.34% and -3.43%
14,C[C@]12COC(=O)C[C@@H]1CC[C@@H]1[C@@H]2CC[C@@]2(C)[C@H]1CC[C@]2(C)O [oxandrolone],-2.51%
15,CN[C@H](C)Cc1ccccc1 [levmetamfetamine],0.239%
16,CN(C)C(=O)C(CC[N@+]1([O-])CC[C@@](O)(c2ccc(Cl)cc2)CC1)(c1ccccc1)c1ccccc1 [loperamide oxide],-4.93%
17,O=C1CN=C(c2ccccn2)c2cc(Br)ccc2N1 [bromazepam],-1.8%
18,CC(=O)[C@@]1(O)CC[C@H]2[C@@H]3CCC4=CC(=O)CC[C@]4(C)[C@@]3(F)[C@@H](O)C[C@@]21C [flugestone],1.27%
19,CCN(CC)S(=O)(=O)c1ccc(C(=O)O)cc1 [etebenecid],-2.66%
20,CC(C)NCC(O)c1ccccc1Cl (stereo not given) [clorprenaline],-2.14%
